Patent publication EP0002836A1, “Acylhydrocarbylaminoalcanecarboxylic acids, their preparation and their use, and pharmaceutical compositions containing them” (Byk Gulden Lomberg Chemische Fabrik GmbH, priority 1977, dated 1979)

Columns and labels:
[1] = test system: Pankreassekretion narkotisierter Ratten; test: Pancreatic secretion of anaesthetised rats after intraduodenal administration; type: in vivo; settings: LD50 (Maus, i.p.) / ED50 Pankreassekretion (Ratte, i.d.); for Lfd.Nr. 1 the cited p.o. LD50
Text: In Tabelle I werden Untersuchungen der Pankreassekretion von narkotisierten Ratten nach intraduodenaler Applikation (ED50) und die letale Wirkung an der Maus (LD50) nach intraperitonealer Applikation von Vertretern der erfindungsgemäßen Verbindungen sowie der therapeutische Quotient (^TQ = LD50/ED50) wiedergegeben.
(§1) Einfluß auf die Pankreas- und Gallesekretion der narkotisierten Ratte Versuchsdurchführung:
(§2) Männliche Sprague-Dawley-Ratten (250 - 300 ^g Körpergewicht) werden mit 1,2 g/kg Urethan i.m. narkotisiert. Dann wird die Bauchhöhle medial geöffnet, der Ductus choledochus kurz oberhalb seiner Mündung in das Duodenum sowie nahe der Leberpforte ligiert, beide Gangabschnitte werden leberwärts katheterisiert.
(§3) Da bei der Ratte alle Pankreaskanäle in den mittleren Abschnitt des Ductus choledochus munden,lassen sich auf diese Weise aus dem distalen (ligierten) Gangabschnitt das Pankreassekret und aus dem proximalen Teil des Ductus choledochus die Galle getrennt ableiten.
(§4) Die sezernierten Mengen an Pankreas- und Gallensaft werden in 30 min. Abständen während 2 Stunden vor bis 3 Stunden nach der intraduodenalen ([…]) Verabreichung der zu prüfenden Verbindungen (verabreichtes Flüssigkeitsvolumen 5 ml/kg) gemessen.
(§5) Die Körpertemperatur der Tiere wird mittels Heizkissen und Bestrahlung auf 36 - 38°C gehalten; die Temperaturkontrolle erfolgt rectal. […]

[2] = test system: Gallesekretion narkotisierter Ratten; test: Bile secretion (choleresis) of anaesthetised rats after intraduodenal administration; type: in vivo; settings: LD50 (Maus, i.p.) / ED50 Gallesekretion (Ratte i.d.); for Lfd.Nr. 1 the cited p.o. LD50
Text: In Tabelle II werden Untersuchungen der Gallesekretion (Cholerese) von narkotisierten Ratten nach intraduodenaler Applikation (ED50) und die letale Wirkung an der Maus (LD50) nach intraperitonealer Applikation von Vertretern der erfindungsgemäßen Verbindungen sowie der therapeutische Quotient (TQ = LD50/ED50) wiedergegeben.
as §1, §2, §3, §4, §5

With `C#CC1(N(CCCC(=O)O)C(=O)c2ccc(Cl)cc2)CCCCC1` [Beispiel 5] the “TQ [LD50/ED50]” value [1] was 95 and the “TQ [LD50/ED50]” value [2] was 32.

`CC(C)(C)CC(C)(C)N(CCCC(=O)O)C(=O)c1ccc(F)cc1` [Beispiel 16] was tested, and the “TQ [LD50/ED50]” value [1] was ~ 40.
